Some of the results follow.

Chains of the proteins cited; added tags and fusions are not shown.
UniProt Q0JBA9, entry or part of it: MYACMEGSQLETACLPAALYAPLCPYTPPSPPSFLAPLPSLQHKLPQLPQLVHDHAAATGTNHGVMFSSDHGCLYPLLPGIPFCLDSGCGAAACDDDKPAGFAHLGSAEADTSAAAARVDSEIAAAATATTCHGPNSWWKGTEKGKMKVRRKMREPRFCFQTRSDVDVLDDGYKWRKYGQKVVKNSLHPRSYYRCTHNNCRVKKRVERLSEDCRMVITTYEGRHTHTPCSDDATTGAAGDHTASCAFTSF

This assay concerns the target OsWRKY34 (Oryza sativa, UniProt Q0JBA9 1-250). Nature of the assay: protein-binding microarray (RPBM); PBS, 2% BSA, 51.3 ng/ul salmon testes DNA, 50 uM zinc acetate, 200 nM TF, 25 C, 1 h; high values mean tight binding. The conditions noted are these: protein: recombinant; tags: N-terminal polyhistidine and DsRed monomer fusion (pET32a); label: CyDye5-dUTP incorporated in the synthesized complementary strand; 3' TTTTT single-stranded linker to array surface; dsDNA, one strand shown. The gist of the method: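 Transcription factors were each fused at the N-terminus to a polyhistidine tag plus DsRed and expressed in E. coli BL21-CodonPlus before Ni–NTA purification. Binding to a double-stranded custom Agilent array was carried out with 200 nM protein at 25 °C for 1 h in PBS, 2% BSA, salmon testes DNA and 50 µM zinc acetate. The binding signal is per-feature fluorescence intensity, in arbitrary units, on an Axon 4000B scanner.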
As to “ATTTTGTGGTGCAATCCCTGGCTACCAATTTCCATTTTTCCGGAGTCACCTAGTGCAG”, the binding signal was 11000 fluorescence intensity (a.u.). With “TACTATCGTTTTAAAAGCTTGGCAGTATTTTCATTTTCTTCGGAGTCACCTAGTGCAG”, the binding signal is 9200 fluorescence intensity (a.u.). In the case of “ATACACACAATATATTGGAGTCCGTGCTGCAGTTTTCCTTCGGAGTCACCTAGTGCAG”, the binding signal was 8130 fluorescence intensity (a.u.).

Consider “ACCACCATCTTCTACCGGATCTGGCGGCCCCTGTGCAAGACGGAGTCACCTAGTGCAG”, for which the binding signal is 9120 fluorescence intensity (a.u.). To “TTCAAATTTTTTCTATCTCTCTTTTCCTTTTCCCCATTATCGGAGTCACCTAGTGCAG” belongs 10300 fluorescence intensity (a.u.); to “AGCTTGGTGTTTTTTTGTGGGCATTTCTGACATGATTTTCCGGAGTCACCTAGTGCAG”, 16000 fluorescence intensity (a.u.); to “TCCATCGTCACAACCTTCAGTACTCACATTACTCTATATACGGAGTCACCTAGTGCAG”, 8570 fluorescence intensity (a.u.). On to “CATTACATTTTTTTCTCTCTTGTTTTTCGGCGGCTGCCGCCGGAGTCACCTAGTGCAG”, for which the binding signal was 9420 fluorescence intensity (a.u.). To “AAAGAGACCTCTGTTGCTGTGATATTCTGTCTTCCTGTGACGGAGTCACCTAGTGCAG” belongs 10200 fluorescence intensity (a.u.); to “ATCACTCATGTTGGATATTATATTTTGGTTTGAGCATCCTCGGAGTCACCTAGTGCAG”, 9350 fluorescence intensity (a.u.). The figure for “ACAGGCATATTGGTCCCTAATCCATTTCTTTTCTATATGACGGAGTCACCTAGTGCAG” is 9120 fluorescence intensity (a.u.); for “GGCCATAGCGTGTATTGTTGTGTTTGTGTGTAAAATTTTTCGGAGTCACCTAGTGCAG” it is 11300 fluorescence intensity (a.u.); for “ATTGCTTCTTGGAGTTAAACCCATTAGGGCCCATTCTCCTCGGAGTCACCTAGTGCAG” it is 8800 fluorescence intensity (a.u.). Take “CCAATGTTCTTCTGTGCACTATCCTCACGTAATATACACCCGGAGTCACCTAGTGCAG”: the binding signal is 14600 fluorescence intensity (a.u.). Take “ATTTCTCATGTAATCTCATTTTTCGTTCCAAGTCTTATCTCGGAGTCACCTAGTGCAG”: the binding signal is 10900 fluorescence intensity (a.u.). As to “GTCTAACCGAAAAGGCACCGGACGTCACACATTCATCCACCGGAGTCACCTAGTGCAG”, the binding signal is 8220 fluorescence intensity (a.u.).

Regarding “GATTCTTTCTTCCTTTCTGGTGTAGTGCCTTCCTTTAAATCGGAGTCACCTAGTGCAG”, the binding signal was 10200 fluorescence intensity (a.u.). The figure for “CTCCATCCGTTTCACAATGTAAGTCATTCTAGCATTTCACCGGAGTCACCTAGTGCAG” is 8500 fluorescence intensity (a.u.); for “ATCTCACCAGCCAATTCATCCATCCATCCAAGCTCCTCGTCGGAGTCACCTAGTGCAG” it is 9770 fluorescence intensity (a.u.).

As to “TCGTCACCGTGTTTCTGCTGTGTTGCTTGCTAATTGCTATCGGAGTCACCTAGTGCAG”, the binding signal was 8280 fluorescence intensity (a.u.). In the case of “ATCGATTTGGAGCATAGTTTATTTTCATTATAGTGTTTTCCGGAGTCACCTAGTGCAG”, the binding signal is 9230 fluorescence intensity (a.u.). As to “GGTCACCCCGACGGCGAGCATCCTCACCTACGGCGCCCGCCGGAGTCACCTAGTGCAG”, the binding signal is 8260 fluorescence intensity (a.u.). Take “AAGGTCATAGCAGTGGGTTTCTCCTCTATTAGTTTTAATCCGGAGTCACCTAGTGCAG”: the binding signal is 9900 fluorescence intensity (a.u.). With “CACCCGCCACGCCTCCGCCTCCGCCTCCGCACTGCATTCCCGGAGTCACCTAGTGCAG”, the binding signal is 12700 fluorescence intensity (a.u.). Regarding “CGATCCTTTTTTTTCTCACTCTTTTTTAACTTCGGACCTTCGGAGTCACCTAGTGCAG”, the binding signal was 9640 fluorescence intensity (a.u.). “TGTCACAGGTTGTGAAGGTCCTGGAAGGCGCGATCGACACCGGAGTCACCTAGTGCAG”: the binding signal is 8690 fluorescence intensity (a.u.). The figure for “TCCTCCAATTCCCTCAACGAAATCTCTCTCTCGATCCGACCGGAGTCACCTAGTGCAG” is 8670 fluorescence intensity (a.u.). To “TATTGGGTGCTTTTGTCCTCAGGTGTGGTATATAGGTACCCGGAGTCACCTAGTGCAG” belongs 8060 fluorescence intensity (a.u.); to “GCGCTTTGCTCGGGTAGAGTAATCTTCTGGTTCAGATCGCCGGAGTCACCTAGTGCAG”, 8400 fluorescence intensity (a.u.). For the sequence “TTACAGCGTCGATCCTCATATGTGAGTTGTGTATTCTTTCCGGAGTCACCTAGTGCAG”, the binding signal was 11500 fluorescence intensity (a.u.).

Regarding “TTACTTTACAAATTTCTCGTATGCATTTACCTGGTCTTTTCGGAGTCACCTAGTGCAG”, the binding signal was 10700 fluorescence intensity (a.u.). As for “TGCATGTACGATACTGGAGCTGATCCTCGCCATCATATCCCGGAGTCACCTAGTGCAG”, the binding signal was 9150 fluorescence intensity (a.u.).

“GTGCTGGTTGCTTGTGTCGAGACCGGAGAGTATTACTCATCGGAGTCACCTAGTGCAG”: the binding signal was 9060 fluorescence intensity (a.u.). Take “GCACACGCTTCATGTTGACATTTTATCGAATCGTGTTCTGCGGAGTCACCTAGTGCAG”: the binding signal is 8350 fluorescence intensity (a.u.). In the case of “GATAGATATTTAACCATTTTCACTTTTATATGTTACGTTTCGGAGTCACCTAGTGCAG”, the binding signal was 8740 fluorescence intensity (a.u.). As to “CCGCTCCACGCGCGCGCCGCCGAGTAGGCTTATGAACTAACGGAGTCACCTAGTGCAG”, the binding signal is 8200 fluorescence intensity (a.u.). As for “ATCAACGATTGCTAGATAGCCAAAGCTCTTTTGTTGTTTCCGGAGTCACCTAGTGCAG”, the binding signal was 9470 fluorescence intensity (a.u.).

As to “CGCCGCCGAACGCCGCCGCTGCCGCCGCCGCCTCTCTCCGCGGAGTCACCTAGTGCAG”, the binding signal was 8380 fluorescence intensity (a.u.). To “CTCACGCTGTGGACATGTCGGACTCCTGGACGCCGGCCGGCGGAGTCACCTAGTGCAG” belongs 8160 fluorescence intensity (a.u.); to “TGGACCAAATGGCACCCGCTACCTTCTTGGCTTGACGTTACGGAGTCACCTAGTGCAG”, 8170 fluorescence intensity (a.u.). Regarding “CACTCGATTGCGCACGAATTAGTCTACTACTCCTTAGGTTCGGAGTCACCTAGTGCAG”, the binding signal is 8460 fluorescence intensity (a.u.). With “TCTTTTTACGTGCCTTTTATCTCTCCCTTCACATAAGCACCGGAGTCACCTAGTGCAG”, the binding signal is 8350 fluorescence intensity (a.u.).

For the origin of these results see paper PMC7819943, “Rice protein-binding microarrays: a tool to detect cis-acting elements near promoter regions in rice”.
